Data taken from PubChem BioAssay AID720495 (Broad Institute, 2013).
The inconclusive results got no clear call from the source; some entries with a clear call stand among them for comparison. The source made the active and inactive calls. How the calls were made is not given here.

Protein sequences, listed by entry. Tags and fused reporters are not part of them. Lines headed by an entry give the natural chain unless they say otherwise; changes in a name come on top.
UniProt P42568: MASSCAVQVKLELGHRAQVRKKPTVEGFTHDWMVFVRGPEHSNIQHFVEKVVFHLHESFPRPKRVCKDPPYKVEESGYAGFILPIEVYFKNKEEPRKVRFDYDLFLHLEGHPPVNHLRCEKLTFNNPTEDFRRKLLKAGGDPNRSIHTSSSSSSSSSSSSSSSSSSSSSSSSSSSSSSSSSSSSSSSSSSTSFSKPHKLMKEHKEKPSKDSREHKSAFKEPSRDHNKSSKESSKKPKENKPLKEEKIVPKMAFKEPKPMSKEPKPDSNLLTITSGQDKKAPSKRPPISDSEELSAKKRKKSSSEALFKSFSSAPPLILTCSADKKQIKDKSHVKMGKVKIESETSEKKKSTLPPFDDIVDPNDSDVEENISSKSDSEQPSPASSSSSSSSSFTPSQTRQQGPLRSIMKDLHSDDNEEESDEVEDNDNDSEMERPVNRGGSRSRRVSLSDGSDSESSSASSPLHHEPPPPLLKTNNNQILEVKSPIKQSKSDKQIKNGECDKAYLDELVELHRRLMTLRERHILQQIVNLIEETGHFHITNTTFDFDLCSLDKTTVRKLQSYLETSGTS

Target: Protein AF-9 (Homo sapiens) (UniProt P42568)
Test: AF9 binding to AF4 blockers, potency – biochemical, cherry-picked samples, plate reader, dose response (AID 720495)
Conditions: biochemical protein-protein interaction assay; at 10 µM (top of the series) unless noted

Row | Compound | activity change, negative = inhibition
1 | Cc1ccc(N2CCOCC2)c2c1C(=O)c1ccccc1C2=O | inconclusive: -47.9%
2 | C(=C1c2ccccc2-c2ccccc21)c1ccccn1 | inconclusive: 0.266%
3 | CN(CCc1ccccc1)C(=O)c1ccc(NC(=O)Cc2ccc(NC(=O)C3CCN(C(=O)C4CCCCC4)CC3)cc2)cc1 | inconclusive: -43.5% [at 5 µM]
4 | COc1cccc(-c2sc3ccccc3c2-c2ccc(OCCN(C)C)cc2)c1 | inactive: -23.3%
5 | Nc1ccc2[nH]ncc2c1 | inconclusive: -8.87%
6 | C#CCOCCOCCOCCNc1nc(N2CCN(C(=O)[C@H](CCCCN)n3cc(CN)nn3)CC2)nc(N2CCN(C(=O)[C@H](CC(N)=O)n3cc(C(N)[C@H](C)CC)nn3)CC2)n1 (stereo not given in full) | inconclusive: -13.4%
7 | CCC(=O)NC(c1ccc(N(C)C)cc1)c1c(O)ccc2ccccc12 (stereo not given) | inconclusive: -18.3%
8 | C[C@H](CO)N1C[C@H](C)[C@H](CN(C)CC2CC2)OCCCC[C@H](C)Oc2ccc(NC(=O)Nc3ccc4c(c3)OCO4)cc2C1=O | inactive: -23.2%
9 | Nc1ccc(N)c(C(=O)O)c1 | inactive: 18%
10 | O=[N+]([O-])c1ccc(/C=N/Nc2ccnc3cc(Cl)ccc23)o1 | inconclusive: 22.5%
11 | COc1ccccc1NC(c1cccnc1)c1ccc2cccnc2c1O (stereo not given) | inactive: -27.6%
12 | O=[N+]([O-])c1ccccc1/C=C\C=N\N1CCN(c2ccccc2)CC1 | inconclusive: 11.4%
13 | CC1CCN(C2=C(NS(=O)(=O)c3ccc(Br)cc3)C(=O)c3ccccc3C2=O)CC1 | inconclusive: -20.3%
14 | Cc1ccnc(NC(c2ccsc2)c2ccc3ccc(C)nc3c2O)c1 (stereo not given) | inconclusive: -8.92%
15 | CC1CN(C)C(C)c2c1oc1ccc(N)cc21 (stereo not given) | inconclusive: -46.2%

Fetched by compound from the list above (2):
Row | Compound | activity change, negative = inhibition
11 | COc1ccccc1NC(c1cccnc1)c1ccc2cccnc2c1O (stereo not given) | inactive: -27.6%
4 | COc1cccc(-c2sc3ccccc3c2-c2ccc(OCCN(C)C)cc2)c1 | inactive: -23.3%
